From the supplement of paper PMC10849652
The other results are listed elsewhere or left out.

The chains behind the UniProt entries cited, without tags or fusion partners. Where a name states a change or a piece, a line headed by the entry shows the natural chain unless it says otherwise.
UniProt P08621, whole entry, looked up: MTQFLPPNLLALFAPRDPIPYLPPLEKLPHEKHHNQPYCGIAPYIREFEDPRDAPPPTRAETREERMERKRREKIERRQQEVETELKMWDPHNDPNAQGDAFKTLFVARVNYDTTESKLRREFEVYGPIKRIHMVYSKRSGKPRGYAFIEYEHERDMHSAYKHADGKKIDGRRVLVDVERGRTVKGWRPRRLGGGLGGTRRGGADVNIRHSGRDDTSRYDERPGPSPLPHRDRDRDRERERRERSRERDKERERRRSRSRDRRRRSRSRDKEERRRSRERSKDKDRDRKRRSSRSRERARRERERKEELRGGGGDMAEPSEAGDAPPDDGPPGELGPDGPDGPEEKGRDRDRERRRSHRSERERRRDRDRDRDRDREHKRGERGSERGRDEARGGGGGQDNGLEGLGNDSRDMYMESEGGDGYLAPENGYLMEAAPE
UniProt Q92922, whole entry, looked up: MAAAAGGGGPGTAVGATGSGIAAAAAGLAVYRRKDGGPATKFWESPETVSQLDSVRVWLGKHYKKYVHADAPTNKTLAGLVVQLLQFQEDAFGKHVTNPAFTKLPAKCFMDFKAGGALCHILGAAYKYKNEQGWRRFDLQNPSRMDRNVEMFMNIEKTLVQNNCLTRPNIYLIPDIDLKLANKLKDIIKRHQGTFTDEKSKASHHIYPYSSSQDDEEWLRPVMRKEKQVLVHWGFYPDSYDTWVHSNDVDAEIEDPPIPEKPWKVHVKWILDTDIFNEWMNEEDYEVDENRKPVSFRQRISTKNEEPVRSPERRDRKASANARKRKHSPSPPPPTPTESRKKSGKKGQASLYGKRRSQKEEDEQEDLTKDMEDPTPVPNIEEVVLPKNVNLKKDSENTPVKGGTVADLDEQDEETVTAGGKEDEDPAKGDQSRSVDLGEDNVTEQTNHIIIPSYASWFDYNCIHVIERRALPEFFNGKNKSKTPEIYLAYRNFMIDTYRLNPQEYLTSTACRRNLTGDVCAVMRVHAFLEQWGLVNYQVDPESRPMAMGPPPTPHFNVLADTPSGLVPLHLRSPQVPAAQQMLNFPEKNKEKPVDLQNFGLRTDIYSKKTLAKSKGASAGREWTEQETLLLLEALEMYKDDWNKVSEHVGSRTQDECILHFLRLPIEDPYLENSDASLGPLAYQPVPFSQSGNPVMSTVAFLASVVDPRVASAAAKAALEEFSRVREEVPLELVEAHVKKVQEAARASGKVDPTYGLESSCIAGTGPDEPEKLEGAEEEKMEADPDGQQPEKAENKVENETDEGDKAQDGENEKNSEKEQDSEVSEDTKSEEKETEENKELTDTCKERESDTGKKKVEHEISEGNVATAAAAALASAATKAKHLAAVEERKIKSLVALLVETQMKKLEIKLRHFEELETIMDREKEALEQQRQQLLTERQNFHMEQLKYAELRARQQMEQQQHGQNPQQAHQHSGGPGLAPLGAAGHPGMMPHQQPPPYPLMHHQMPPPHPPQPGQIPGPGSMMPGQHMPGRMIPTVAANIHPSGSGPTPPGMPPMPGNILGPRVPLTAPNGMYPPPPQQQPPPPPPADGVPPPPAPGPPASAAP
UniProt Q8IY18: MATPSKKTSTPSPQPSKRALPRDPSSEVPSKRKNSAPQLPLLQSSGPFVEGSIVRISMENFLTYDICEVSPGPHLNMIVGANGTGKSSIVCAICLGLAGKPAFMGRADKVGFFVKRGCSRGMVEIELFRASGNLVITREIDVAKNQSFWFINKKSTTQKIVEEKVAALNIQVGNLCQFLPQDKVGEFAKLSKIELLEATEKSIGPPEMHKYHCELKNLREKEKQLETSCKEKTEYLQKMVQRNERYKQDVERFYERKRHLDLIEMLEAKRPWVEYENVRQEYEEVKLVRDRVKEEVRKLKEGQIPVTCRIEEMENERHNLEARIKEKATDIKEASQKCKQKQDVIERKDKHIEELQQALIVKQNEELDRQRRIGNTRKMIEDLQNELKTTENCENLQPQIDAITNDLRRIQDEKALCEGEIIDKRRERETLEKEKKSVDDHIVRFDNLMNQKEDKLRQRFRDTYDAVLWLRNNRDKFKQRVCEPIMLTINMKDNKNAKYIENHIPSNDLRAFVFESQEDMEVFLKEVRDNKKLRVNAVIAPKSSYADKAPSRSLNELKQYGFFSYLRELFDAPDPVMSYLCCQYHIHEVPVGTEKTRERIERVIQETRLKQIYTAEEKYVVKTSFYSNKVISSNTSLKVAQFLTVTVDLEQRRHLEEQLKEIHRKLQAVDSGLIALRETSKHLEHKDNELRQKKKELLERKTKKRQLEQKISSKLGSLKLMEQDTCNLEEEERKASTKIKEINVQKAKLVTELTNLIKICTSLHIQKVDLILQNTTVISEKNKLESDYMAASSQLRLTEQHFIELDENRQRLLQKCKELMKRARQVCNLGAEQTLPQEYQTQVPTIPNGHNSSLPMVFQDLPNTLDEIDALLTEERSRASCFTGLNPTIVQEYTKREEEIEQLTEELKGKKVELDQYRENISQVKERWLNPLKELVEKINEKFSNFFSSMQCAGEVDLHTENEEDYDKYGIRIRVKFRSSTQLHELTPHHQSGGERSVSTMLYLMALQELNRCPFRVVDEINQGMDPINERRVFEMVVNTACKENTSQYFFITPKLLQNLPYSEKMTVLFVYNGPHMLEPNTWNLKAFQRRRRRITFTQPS
UniProt Q13425: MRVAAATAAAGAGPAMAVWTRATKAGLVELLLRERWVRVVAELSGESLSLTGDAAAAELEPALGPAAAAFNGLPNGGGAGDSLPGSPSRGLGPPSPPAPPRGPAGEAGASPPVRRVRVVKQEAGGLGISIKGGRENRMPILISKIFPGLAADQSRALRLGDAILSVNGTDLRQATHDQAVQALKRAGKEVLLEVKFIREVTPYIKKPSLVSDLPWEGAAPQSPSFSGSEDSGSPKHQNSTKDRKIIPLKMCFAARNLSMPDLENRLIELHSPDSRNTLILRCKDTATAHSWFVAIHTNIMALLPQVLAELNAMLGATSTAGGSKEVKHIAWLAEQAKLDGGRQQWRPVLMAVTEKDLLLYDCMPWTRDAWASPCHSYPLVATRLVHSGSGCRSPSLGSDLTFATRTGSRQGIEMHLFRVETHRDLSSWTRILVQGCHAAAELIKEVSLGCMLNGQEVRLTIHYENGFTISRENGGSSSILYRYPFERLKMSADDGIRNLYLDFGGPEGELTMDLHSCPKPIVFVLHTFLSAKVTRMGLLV
UniProt O95347, whole entry, looked up: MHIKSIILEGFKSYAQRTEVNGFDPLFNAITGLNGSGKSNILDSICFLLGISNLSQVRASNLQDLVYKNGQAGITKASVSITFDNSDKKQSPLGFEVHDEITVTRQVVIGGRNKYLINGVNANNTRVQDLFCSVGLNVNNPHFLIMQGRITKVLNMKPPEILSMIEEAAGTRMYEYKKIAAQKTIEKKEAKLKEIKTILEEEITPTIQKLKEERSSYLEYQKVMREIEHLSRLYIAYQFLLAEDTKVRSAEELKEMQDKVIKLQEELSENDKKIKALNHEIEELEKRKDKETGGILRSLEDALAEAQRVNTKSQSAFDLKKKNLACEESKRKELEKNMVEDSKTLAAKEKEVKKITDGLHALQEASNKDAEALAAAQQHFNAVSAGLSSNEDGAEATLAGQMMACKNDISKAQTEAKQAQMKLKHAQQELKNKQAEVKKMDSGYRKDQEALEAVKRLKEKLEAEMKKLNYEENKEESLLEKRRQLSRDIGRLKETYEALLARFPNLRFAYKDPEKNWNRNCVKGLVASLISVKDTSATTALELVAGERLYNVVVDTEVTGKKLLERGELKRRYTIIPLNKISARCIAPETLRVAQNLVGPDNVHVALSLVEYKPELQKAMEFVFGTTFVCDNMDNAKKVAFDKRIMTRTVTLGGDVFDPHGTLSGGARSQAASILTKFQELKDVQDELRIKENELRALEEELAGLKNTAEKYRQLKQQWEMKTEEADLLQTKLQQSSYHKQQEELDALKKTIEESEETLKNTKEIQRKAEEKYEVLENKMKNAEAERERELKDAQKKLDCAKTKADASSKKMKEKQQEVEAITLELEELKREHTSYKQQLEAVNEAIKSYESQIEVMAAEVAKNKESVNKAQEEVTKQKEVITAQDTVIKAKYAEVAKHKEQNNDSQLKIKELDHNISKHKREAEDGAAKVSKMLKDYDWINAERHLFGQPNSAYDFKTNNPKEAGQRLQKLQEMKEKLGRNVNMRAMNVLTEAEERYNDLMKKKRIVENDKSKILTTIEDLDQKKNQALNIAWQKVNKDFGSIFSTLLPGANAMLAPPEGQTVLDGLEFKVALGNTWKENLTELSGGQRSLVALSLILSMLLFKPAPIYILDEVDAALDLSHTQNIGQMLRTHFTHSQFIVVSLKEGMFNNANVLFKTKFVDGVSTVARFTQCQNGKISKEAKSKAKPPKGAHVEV
UniProt Q8TAQ2, whole entry, looked up: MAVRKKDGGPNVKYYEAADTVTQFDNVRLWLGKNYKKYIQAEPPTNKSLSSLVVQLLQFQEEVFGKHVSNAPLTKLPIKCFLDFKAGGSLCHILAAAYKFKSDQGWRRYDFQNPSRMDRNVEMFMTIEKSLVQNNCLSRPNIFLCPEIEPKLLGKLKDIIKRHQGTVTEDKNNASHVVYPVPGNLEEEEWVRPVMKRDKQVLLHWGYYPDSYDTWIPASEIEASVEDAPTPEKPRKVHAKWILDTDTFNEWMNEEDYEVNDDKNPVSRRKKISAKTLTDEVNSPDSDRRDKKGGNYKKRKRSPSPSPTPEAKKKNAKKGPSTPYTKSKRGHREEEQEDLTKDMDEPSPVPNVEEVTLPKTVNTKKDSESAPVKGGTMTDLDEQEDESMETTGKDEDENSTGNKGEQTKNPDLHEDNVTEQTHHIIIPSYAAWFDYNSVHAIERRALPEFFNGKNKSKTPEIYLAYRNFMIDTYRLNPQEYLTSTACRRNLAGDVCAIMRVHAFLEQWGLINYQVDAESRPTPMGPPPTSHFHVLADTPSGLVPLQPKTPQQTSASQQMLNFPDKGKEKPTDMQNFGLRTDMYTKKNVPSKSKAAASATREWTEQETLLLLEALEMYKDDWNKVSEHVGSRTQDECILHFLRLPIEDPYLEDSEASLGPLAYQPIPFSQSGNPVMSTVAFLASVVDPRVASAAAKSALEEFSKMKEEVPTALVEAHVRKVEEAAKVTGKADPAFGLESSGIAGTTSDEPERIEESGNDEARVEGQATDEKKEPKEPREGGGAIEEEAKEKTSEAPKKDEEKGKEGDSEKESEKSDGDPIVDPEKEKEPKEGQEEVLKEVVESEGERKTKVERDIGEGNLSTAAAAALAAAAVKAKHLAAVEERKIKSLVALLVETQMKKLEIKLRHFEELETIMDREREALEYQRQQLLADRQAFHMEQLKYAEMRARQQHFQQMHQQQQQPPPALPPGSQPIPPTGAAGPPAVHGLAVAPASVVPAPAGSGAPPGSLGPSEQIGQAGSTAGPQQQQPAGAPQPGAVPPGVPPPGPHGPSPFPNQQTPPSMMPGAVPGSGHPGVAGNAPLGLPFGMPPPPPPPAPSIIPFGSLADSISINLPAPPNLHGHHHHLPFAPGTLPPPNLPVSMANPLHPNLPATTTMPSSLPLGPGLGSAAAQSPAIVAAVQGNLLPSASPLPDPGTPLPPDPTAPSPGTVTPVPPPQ
UniProt O60641: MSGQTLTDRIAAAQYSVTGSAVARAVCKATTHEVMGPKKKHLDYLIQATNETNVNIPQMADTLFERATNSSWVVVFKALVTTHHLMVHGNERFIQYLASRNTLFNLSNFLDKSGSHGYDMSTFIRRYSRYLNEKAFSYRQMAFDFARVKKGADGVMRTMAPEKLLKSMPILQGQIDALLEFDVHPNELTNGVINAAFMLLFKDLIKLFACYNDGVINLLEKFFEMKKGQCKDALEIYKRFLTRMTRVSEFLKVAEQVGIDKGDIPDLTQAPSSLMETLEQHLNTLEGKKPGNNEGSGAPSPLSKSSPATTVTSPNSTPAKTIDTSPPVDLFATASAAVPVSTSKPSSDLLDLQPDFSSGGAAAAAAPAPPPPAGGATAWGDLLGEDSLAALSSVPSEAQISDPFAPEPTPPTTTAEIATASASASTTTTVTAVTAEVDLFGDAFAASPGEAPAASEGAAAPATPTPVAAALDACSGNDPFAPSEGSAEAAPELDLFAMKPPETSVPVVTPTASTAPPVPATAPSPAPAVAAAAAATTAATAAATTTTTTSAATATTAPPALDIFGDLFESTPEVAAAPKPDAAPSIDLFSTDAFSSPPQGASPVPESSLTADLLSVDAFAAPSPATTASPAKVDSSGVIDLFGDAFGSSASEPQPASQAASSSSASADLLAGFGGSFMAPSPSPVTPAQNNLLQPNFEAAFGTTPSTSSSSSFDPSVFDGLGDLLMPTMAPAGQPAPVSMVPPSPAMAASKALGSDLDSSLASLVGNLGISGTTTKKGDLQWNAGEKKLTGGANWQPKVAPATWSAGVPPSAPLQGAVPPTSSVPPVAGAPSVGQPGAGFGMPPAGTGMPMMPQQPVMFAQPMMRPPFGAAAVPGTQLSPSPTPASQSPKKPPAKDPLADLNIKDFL

Assays:
Test in all cases: log2 fold change, soluble protein after heating vs DMSO (PISA); higher = thermal stabilisation; K562 lysate, 10 uM; active = over 0.2 and 3.5 SD of the protein, either way, in both replicates (recomputed)
alvocidib = compound: CN1CC[C@H](c2c(O)cc(O)c3c(=O)cc(-c4ccccc4Cl)oc23)[C@H](O)C1 [alvocidib]
Method in brief: (§1)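 Soluble protein was defined as the supernatant remaining after 21,000xg for 90 min, following pooling of heated aliquots and adjustment to 0.5% NP-40 at 4°C. Before that, crude K562 extract at 1 mg/mL protein in PBS pH 7.4 with 1 mM MgCl2 was treated with 10 μM compound for 30 min and heated for 3 min across 48°C-58°C. Quantification used TMTpro 16plex LC-MS/MS with channel sums equalised, and values are log-two fold changes in thermal stability relative to solvent controls from duplicates.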

Tubastatin A = compound: CN1CCc2c(c3ccccc3n2Cc2ccc(C(=O)NO)cc2)C1 [Tubastatin A]
Method in brief: as §1

[1] = compound: CNC(=O)C1=CC=CC=C1NC2=NC(=NC=C2Cl)NC3=C(C=C(C=C3)N4CCOCC4)OC
Method in brief: as §1

defactinib = compound: CNC(=O)c1ccc(Nc2ncc(C(F)(F)F)c(NCc3nccnc3N(C)S(C)(=O)=O)n2)cc1 [defactinib]
Method in brief: as §1

[2] = compound: CNc1nc(-c2ccc3c(N)n[nH]c3c2)cc(N2C[C@@H](C(=O)NC3CCCCC3)CC[C@H]2C)n1
Method in brief: as §1

encorafenib = compound: COC(=O)N[C@@H](C)CNc1nccc(-c2cn(C(C)C)nc2-c2cc(Cl)cc(NS(C)(=O)=O)c2F)n1 [encorafenib]
Method in brief: as §1

[3] = compound: COC(=O)[C@H](CCSC)NC(=O)C1=C(C=C(C=C1)NC[C@H](CS)N)C2=CC=CC=C2
Method in brief: as §1

alisertib = compound: COc1cc(Nc2ncc3c(n2)-c2ccc(Cl)cc2C(c2c(F)cccc2OC)=NC3)ccc1C(=O)O [alisertib]
Method in brief: as §1

[4] = compound: COc1cc2nc(-c3cc(F)ccc3O)nc(N[C@@H]3CNC[C@H]3C(C)(C)O)c2cc1OC
Method in brief: as §1

gefitinib = compound: COc1cc2ncnc(Nc3ccc(F)c(Cl)c3)c2cc1OCCCN1CCOCC1 [gefitinib]
Method in brief: as §1

Measured: log2 fold change

SNX12 isoform 1 (UniProt Q9UMY4)
inactive: alvocidib 0.001 | Tubastatin A 0.024 | [1] -0.001 | defactinib -0.032 | [2] 0.02 | encorafenib 0 | [3] -0.077 | alisertib -0.016 | [4] -0.002 | gefitinib 0.026

SNX2 (UniProt O60749)
inactive: alvocidib 0.001 | Tubastatin A -0.027 | [1] 0.007 | defactinib 0.007 | [2] -0.014 | encorafenib 0.001 | [3] 0.081 | alisertib 0.003 | [4] 0.011 | gefitinib -0.013

SMARCE1 (UniProt Q969G3)
inactive: alvocidib 0.012 | Tubastatin A 0.006 | [1] 0.002 | defactinib -0.001 | [2] -0.044 | encorafenib -0.005 | [3] 0.081 | alisertib -0.049 | [4] 0.002 | gefitinib -0.03

SNRNP70 (UniProt P08621)
inactive: alvocidib -0.006 | Tubastatin A 0.011 | [1] -0.024 | defactinib -0.006 | [2] 0.02 | encorafenib 0.026 | [3] -0.016 | alisertib -0.016 | [4] 0.011 | gefitinib -0.013

SMARCAL1 (UniProt Q9NZC9)
inactive: alvocidib 0.125 | Tubastatin A -0.108 | [1] 0.052 | defactinib -0.001 | [2] -0.049 | encorafenib 0.01 | [3] 0.057 | alisertib -0.002 | [4] 0.053 | gefitinib -0.012

SMARCC1 (UniProt Q92922)
inactive: alvocidib -0.013 | Tubastatin A -0.063 | [1] -0.004 | defactinib -0.004 | [2] 0.001 | encorafenib 0.005 | [3] 0.053 | alisertib -0.014 | [4] -0.002 | gefitinib -0.06

SP1 (UniProt P08047)
inactive: alvocidib -0.017 | Tubastatin A -0.013 | [1] 0.053 | defactinib 0.03 | [2] 0.104 | encorafenib 0.073 | [3] -0.087 | alisertib 0.005 | [4] -0.06 | gefitinib 0.003

SMC5 (UniProt Q8IY18)
inactive: alvocidib -0.022 | Tubastatin A -0.003 | [1] -0.005 | defactinib 0.007 | [2] -0.008 | encorafenib -0.011 | [3] 0.023 | alisertib -0.035 | [4] -0.008 | gefitinib 0.043

SNRPA1 (UniProt P09661)
inactive: alvocidib -0.034 | Tubastatin A 0.042 | [1] -0.015 | defactinib -0.031 | [2] -0.006 | encorafenib -0.015 | [3] 0.016 | alisertib 0.001 | [4] -0.006 | gefitinib 0.013

SMC1A (UniProt Q14683)
inactive: alvocidib 0.002 | Tubastatin A 0.011 | [1] 0.001 | defactinib 0.008 | [2] -0.005 | encorafenib 0.009 | [3] 0.017 | alisertib 0.001 | [4] 0.004 | gefitinib 0.001

SNCA (UniProt P37840)
inactive: alvocidib -0.094 | Tubastatin A 0.172 | [1] 0.028 | defactinib -0.019 | [2] 0.269 | encorafenib -0.026 | [3] 0.204 | alisertib -0.021 | [4] 0.117 | gefitinib 0.089

Pulled one by one from above (2):
SMC1A (UniProt Q14683)
inactive: alvocidib 0.002 | Tubastatin A 0.011 | [1] 0.001 | defactinib 0.008 | [2] -0.005 | encorafenib 0.009 | [3] 0.017 | alisertib 0.001 | [4] 0.004 | gefitinib 0.001

SMC5 (UniProt Q8IY18)
inactive: alvocidib -0.022 | Tubastatin A -0.003 | [1] -0.005 | defactinib 0.007 | [2] -0.008 | encorafenib -0.011 | [3] 0.023 | alisertib -0.035 | [4] -0.008 | gefitinib 0.043

(next part)

SNRPD1 (UniProt P62314)
inactive: alvocidib -0.055 | Tubastatin A 0.013 | [1] 0.038 | defactinib -0.014 | [2] 0.044 | encorafenib -0.013 | [3] 0.016 | alisertib -0.022 | [4] 0.005 | gefitinib 0.007

SNX27 (UniProt Q96L92)
inactive: alvocidib -0.017 | Tubastatin A -0.019 | [1] 0.026 | defactinib -0.037 | [2] -0.079 | encorafenib -0.038 | [3] 0.052 | alisertib -0.021 | [4] -0.022 | gefitinib -0.006

SNX8 (UniProt Q9Y5X2)
inactive: alvocidib -0.029 | Tubastatin A 0.025 | [1] 0.03 | defactinib 0.019 | [2] 0.072 | encorafenib 0.009 | [3] -0.068 | alisertib -0.025 | [4] 0.002 | gefitinib -0.004

SMG6 (UniProt Q86US8)
inactive: alvocidib -0.067 | Tubastatin A -0.062 | [1] -0.112 | defactinib -0.027 | [2] -0.059 | encorafenib 0.148 | [3] -0.01 | alisertib -0.044 | [4] 0.008 | gefitinib -0.069

SNTB2 (UniProt Q13425)
inactive: alvocidib -0.02 | Tubastatin A -0.113 | [1] 0.018 | defactinib 0.007 | [2] 0.017 | encorafenib 0.052 | [3] 0.113 | alisertib -0.013 | [4] 0.014 | gefitinib -0.037

SMC2 (UniProt O95347)
inactive: alvocidib 0.039 | Tubastatin A -0.087 | [1] -0.004 | defactinib -0.003 | [2] -0.022 | encorafenib -0.005 | [3] 0.047 | alisertib 0.005 | [4] 0.003 | gefitinib -0.003

SNRNP27 (UniProt Q8WVK2)
inactive: alvocidib -0.004 | Tubastatin A 0.065 | [1] -0.014 | defactinib 0.039 | [2] -0.037 | encorafenib 0 | [3] -0.03 | alisertib -0.038 | [4] 0.014 | gefitinib 0.038

SORD (UniProt Q00796)
inactive: alvocidib -0.02 | Tubastatin A 0.037 | [1] 0.002 | defactinib -0.008 | [2] 0.014 | encorafenib 0.005 | [3] -0.05 | alisertib -0.013 | [4] 0.005 | gefitinib -0.016

SMARCC2 (UniProt Q8TAQ2)
inactive: alvocidib -0.014 | Tubastatin A -0.039 | [1] -0.002 | defactinib 0.016 | [2] -0.016 | encorafenib 0.007 | [3] 0.032 | alisertib -0.009 | [4] -0.012 | gefitinib -0.025

SNRPC (UniProt P09234)
inactive: alvocidib -0.031 | Tubastatin A 0.078 | [1] 0.024 | defactinib -0.031 | [2] 0.032 | encorafenib -0.027 | [3] 0.01 | alisertib 0.012 | [4] 0.003 | gefitinib -0.001

SNX4 (UniProt O95219)
inactive: alvocidib -0.01 | Tubastatin A -0.016 | [1] 0.007 | defactinib -0.044 | [2] -0.029 | encorafenib -0.004 | [3] 0.004 | alisertib -0.092 | gefitinib -0.11

SNX5 (UniProt Q9Y5X3)
inactive: alvocidib 0.023 | Tubastatin A -0.015 | [1] -0.016 | defactinib 0 | [2] -0.041 | encorafenib -0.01 | [3] 0.022 | alisertib 0.009 | [4] -0.027 | gefitinib 0.007

SNRNP40 (UniProt Q96DI7)
inactive: alvocidib -0.026 | Tubastatin A 0.021 | [1] -0.019 | defactinib -0.009 | [2] -0.021 | encorafenib -0.025 | [3] -0.01 | alisertib 0.016 | [4] -0.004 | gefitinib -0.01

SNAP91 (UniProt O60641)
inactive: alvocidib -0.023 | Tubastatin A -0.031 | [1] -0.075 | defactinib 0.071 | [2] -0.098 | encorafenib 0.111 | [3] -0.024 | alisertib -0.054 | [4] 0.026 | gefitinib 0.061

SMG7 (UniProt Q92540)
inactive: alvocidib -0.003 | Tubastatin A 0.008 | [1] 0.018 | defactinib 0.076 | [2] -0.017 | encorafenib 0.025 | [3] 0.202 | alisertib 0.015 | [4] 0.132 | gefitinib 0.032

SMC4 (UniProt Q9NTJ3)
inactive: alvocidib 0.03 | Tubastatin A -0.079 | [1] -0.006 | defactinib -0.003 | [2] -0.008 | encorafenib 0.004 | [3] 0.024 | alisertib 0.001 | [4] 0 | gefitinib -0.024

SMC6 (UniProt Q96SB8)
inactive: alvocidib -0.017 | Tubastatin A -0.087 | [1] 0.049 | defactinib -0.003 | [2] -0.004 | encorafenib -0.02 | [3] 0.045 | alisertib -0.018 | [4] -0.013 | gefitinib 0.007

SMARCA4 (UniProt P51532)
inactive: alvocidib 0.004 | Tubastatin A -0.078 | [1] -0.007 | defactinib 0.002 | [2] -0.003 | encorafenib 0.021 | [3] 0.056 | alisertib 0.019 | [4] -0.002 | gefitinib -0.001
